Hit rate of the full screen: of about 350,000 compounds, about 1,300 (0.37%) were called active. Inconclusive results, whose numbers are uncertain, are shown with a selection of clear calls.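 How the source made its calls: active means mean added fluorescence quench of at least 8% versus neutral control, with both replicates also reaching 8%; inconclusive means only one of the mean or replicate conditions met; inactive means mean below 8% and not both replicates reaching 8%.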
Assay: F508del CFTR correction, initial screen, CFBE line, single point (AID 720511);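 further: cells transiently co-express mutant CFTR-F508del with the halide-sensitive YFP; corrector assay measuring rescue of mutant channel to the surface after 24 h compound exposure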
Details: CFBE cells, YFP halide quenching, at 7.58 µM, active compounds read high, % fluorescence drop versus neutral controls, stimulated with forskolin plus potentiator P3

Activity (quench increase), active:
Cc1ccc(S(=O)(=O)N2CCOCC2)cc1NC(=O)CSc1nnc(COc2ccccc2F)n1N 28.2%
O=C(c1cccc(S(=O)(=O)N2CCOCC2)c1)N1CCCC(C(F)(F)F)C1 (stereo not drawn) 10.1%
O=C1C=CC(O)(c2cc(=O)c3c(O)cc(O)cc3o2)C=C1 16.6%
COc1ccccc1Nc1c2c(nc3ccccc13)CCC2 9.83%
CCOC(=O)c1sc2nc(Cc3ccc(Cl)cc3)[nH]c(=S)c2c1C 11.9%
S=C(NCCc1ccccc1)Nc1nccs1 9.2%

Activity (quench increase), inactive:
CC(=O)Nc1cccc(N)c1 1.4%
COc1cc([N+](=O)[O-])ccc1NC(=O)NCc1ccco1 -2.7%
C[C@@H]1CN([C@@H](C)CO)C(=O)Cc2cc(NC(=O)Cn3cnnn3)ccc2O[C@H]1CN(C)Cc1ccncc1 -0.875%
COc1ccc(NC(=O)Nc2cccc3c2O[C@H](CN(C)Cc2ccc(C(F)(F)F)cc2)[C@@H](C)CN([C@H](C)CO)C3=O)cc1 -0.993%
Cc1ccc(S(=O)(=O)N2CC[C@@H]3[C@@H](CO)Nc4ccc(-c5ccccc5F)cc4[C@@H]32)cc1 -3.35%
COc1ccc(S(=O)(=O)N(C)C[C@@H]2OCCCC[C@H](C)Oc3ccc(NC(=O)NC(C)C)cc3C(=O)N([C@H](C)CO)C[C@@H]2C)cc1 -1.98%
Cc1c(C#N)c2ccccc2n1CCOc1ccccc1F -0.305%
COc1ccc(C#Cc2c(-c3ccccc3)n(C)c3ccccc23)cc1 -5.27%
NC(=S)Nc1cccc(-c2n[nH]c(=S)o2)c1 -0.736%
CC(C)NC(=O)N(C)C[C@H]1Oc2c(NC(=O)CCCCCC(=O)Nc3ccccc3N)cccc2C(=O)N([C@@H](C)CO)C[C@@H]1C -0.024%
COc1ccc(S(=O)(=O)N(C)C[C@H]2Oc3ccc(NC(=O)Cc4cn(C)c5ccccc45)cc3CC(=O)N([C@@H](C)CO)C[C@H]2C)cc1 0.535%
CCCNC(=O)N(C)C[C@H]1Oc2ncc(C#CC3CC3)cc2C(=O)N([C@@H](C)CO)C[C@@H]1C -1.07%
C[C@@H]1CCCCO[C@@H](CN(C)C(=O)Cc2ccccc2)[C@@H](C)CN([C@H](C)CO)C(=O)c2cc(NC(=O)c3ccncc3)ccc2O1 -0.166%
C[C@H](CO)N1C[C@H](C)[C@@H](CN(C)S(=O)(=O)c2cn(C)cn2)Oc2ccc(N(C)C)cc2C1=O -1.01%
COc1ccc(NC(=O)CCCN2C(=O)CN(C)C2=O)c(OC)c1 -2.69%

Activity (quench increase), inconclusive:
C[C@H]1CN([C@@H](C)CO)C(=O)c2cc(NC(=O)Nc3ccc(F)cc3)ccc2O[C@@H]1CN(C)S(=O)(=O)c1ccccc1 9.77%
c1cncc(-c2ccc(C3[C@@H]4CN(Cc5nccs5)C[C@H]3N4)cc2)c1 (stereo partly drawn) 8.94%
O=C(C1CCCCC1)N1CC[C@H]2[C@H](CO)Nc3ccc(Br)cc3[C@H]21 8.86%
COc1ccccc1NC(=O)c1cnc(Nc2ccccc2OC)c2ccccc12 8.78%
Cc1ccc(S(=O)(=O)Nc2ccc3c(c2)C(=O)N([C@@H](C)CO)C[C@@H](C)[C@@H](CN(C)Cc2ccc4c(c2)OCO4)OCCCC[C@H](C)O3)cc1 8.09%
COc1cc(/C=C2\SC(=S)N(NC(=O)c3ccccc3O)C2=O)ccc1O 9.24%
CC(=O)/C(C#N)=C1\NC(=O)C(Cc2cc(Cl)ccc2Cl)S1 (stereo not drawn) 8.02%
COc1ccc(-c2nn(-c3ccccc3)cc2/C=N/Nc2ccc3ccccc3n2)cc1OC 9.33%
CC(C)NCc1cc(Br)ccc1OCc1ccccc1 8.47%
C[C@@H]1CCCCO[C@H](CN(C)Cc2ccccc2)[C@H](C)CN([C@H](C)CO)C(=O)c2cc(NC(=O)Nc3ccc(C(F)(F)F)cc3)ccc2O1 8.27%
COc1ccc(C(=S)N2CCN(c3cccc(Cl)c3)CC2)c(OC)c1 8.2%
CC(C)(C)c1ccc(-c2nc(C#N)c(NCCCn3ccnc3)o2)cc1 8.05%
O=C(NNC(=S)Nc1ccc(Cl)c(Cl)c1)c1ccccn1 17.7%
Cc1cc(C)c(Cc2c(C)nc3c(C(=O)NCc4ccco4)cnn3c2C)c(C)c1 8.64%
NC(=O)NC(CC(=O)NCCc1ccc(S(N)(=O)=O)cc1)c1ccc(Cl)cc1 (stereo not drawn) 8.03%
C=C[C@@H](COC(C)=O)N(Cc1ccccc1[N+](=O)[O-])S(=O)(=O)c1ccc(Br)cc1 8.65%
Cc1cc(C)nc(N/N=C/C2=C(O)CC(c3ccc(F)cc3)CC2=O)n1 (stereo not drawn) 11.5%
CC(C)(C)S(=O)(=O)c1cnc(-c2cnccn2)nc1N 10.7%
COc1ccc(Nc2nc(Cl)nc(Nc3ccc(OC)cc3)n2)cc1 9.44%
COc1cc(/C=C2\SC(=O)N(CC(=O)Nc3ccccc3F)C2=O)cc(Cl)c1O 8.25%
CCCN(CCC)C1=CC(=[N+]2CCCC2)CC(C)(C)C1 8.15%
COc1ccc(S(=O)(=O)N(C)C[C@@H]2Oc3ccc(NS(=O)(=O)c4ccccc4)cc3CC(=O)N([C@@H](C)CO)C[C@H]2C)cc1 8.56%
CC1=NNC(=O)C1CCC(=O)N/N=C\c1cccc(Cl)c1 (stereo not drawn) 10.2%
COc1ccc2cc(-c3[nH]ncc3CN3CCCC3c3nonc3C)ccc2c1 (stereo not drawn) 8.29%
COc1ccc(C(=O)Nc2ccc3c(c2)OC[C@@H](C)N(C(C)=O)C[C@H](C)[C@@H](OC)CN(C)C3=O)cc1 8.83%
CCOc1ccc2c(c1)sc(N)[n+]2Cc1cc(C)cc2cccnc12 10.3%
CCN(CC)CCCC(C)n1c2nc(=O)[nH]c(=O)c-2nc2cc(Cl)ccc21 (stereo not drawn) 15.8%

Fetched by compound from the list above:
Activity (quench increase), inconclusive:
COc1ccc(S(=O)(=O)N(C)C[C@@H]2Oc3ccc(NS(=O)(=O)c4ccccc4)cc3CC(=O)N([C@@H](C)CO)C[C@H]2C)cc1 8.56%
Cc1cc(C)nc(N/N=C/C2=C(O)CC(c3ccc(F)cc3)CC2=O)n1 (stereo not drawn) 11.5%
CC1=NNC(=O)C1CCC(=O)N/N=C\c1cccc(Cl)c1 (stereo not drawn) 10.2%
Cc1cc(C)c(Cc2c(C)nc3c(C(=O)NCc4ccco4)cnn3c2C)c(C)c1 8.64%

From PubChem BioAssay AID720511 (Broad Institute, 2013)
